The numbers were not newly measured in article PMC6719874 (PLoS ONE, 2019), which cites them from elsewhere.

As usually defined, the IC50 is the concentration that inhibits the measured activity by half.

The series has as its system 19 cancer cell lines. Particulars: read-out: average IC50; proliferating cells, 19 cancer cell lines ref 75-77.

Structures are written as SMILES.

As for `CCC(CO)Nc1nc(NCc2ccccc2)c2ncn(C(C)C)c2n1` (stereo not shown) [R-roscovitine, 2-(1-ethyl-2-hydroxyethylamino)-6-benzylamino-9-isopropylpurine], the IC50 was roughly 16 µM.
